Results from article PMC4627230, “Identification of TAX2 peptide as a new unpredicted anti-cancer agent” (Oncotarget, 2015).
Results are given in words; binding and its absence hold for the method and conditions named. Some entries that bind do so weakly or less than the wild type.

Sequences of proteins named here, by UniProt entry; tags and fusion partners are left off. Residues count along the entry.
UniProt P07996, residues 19-1170: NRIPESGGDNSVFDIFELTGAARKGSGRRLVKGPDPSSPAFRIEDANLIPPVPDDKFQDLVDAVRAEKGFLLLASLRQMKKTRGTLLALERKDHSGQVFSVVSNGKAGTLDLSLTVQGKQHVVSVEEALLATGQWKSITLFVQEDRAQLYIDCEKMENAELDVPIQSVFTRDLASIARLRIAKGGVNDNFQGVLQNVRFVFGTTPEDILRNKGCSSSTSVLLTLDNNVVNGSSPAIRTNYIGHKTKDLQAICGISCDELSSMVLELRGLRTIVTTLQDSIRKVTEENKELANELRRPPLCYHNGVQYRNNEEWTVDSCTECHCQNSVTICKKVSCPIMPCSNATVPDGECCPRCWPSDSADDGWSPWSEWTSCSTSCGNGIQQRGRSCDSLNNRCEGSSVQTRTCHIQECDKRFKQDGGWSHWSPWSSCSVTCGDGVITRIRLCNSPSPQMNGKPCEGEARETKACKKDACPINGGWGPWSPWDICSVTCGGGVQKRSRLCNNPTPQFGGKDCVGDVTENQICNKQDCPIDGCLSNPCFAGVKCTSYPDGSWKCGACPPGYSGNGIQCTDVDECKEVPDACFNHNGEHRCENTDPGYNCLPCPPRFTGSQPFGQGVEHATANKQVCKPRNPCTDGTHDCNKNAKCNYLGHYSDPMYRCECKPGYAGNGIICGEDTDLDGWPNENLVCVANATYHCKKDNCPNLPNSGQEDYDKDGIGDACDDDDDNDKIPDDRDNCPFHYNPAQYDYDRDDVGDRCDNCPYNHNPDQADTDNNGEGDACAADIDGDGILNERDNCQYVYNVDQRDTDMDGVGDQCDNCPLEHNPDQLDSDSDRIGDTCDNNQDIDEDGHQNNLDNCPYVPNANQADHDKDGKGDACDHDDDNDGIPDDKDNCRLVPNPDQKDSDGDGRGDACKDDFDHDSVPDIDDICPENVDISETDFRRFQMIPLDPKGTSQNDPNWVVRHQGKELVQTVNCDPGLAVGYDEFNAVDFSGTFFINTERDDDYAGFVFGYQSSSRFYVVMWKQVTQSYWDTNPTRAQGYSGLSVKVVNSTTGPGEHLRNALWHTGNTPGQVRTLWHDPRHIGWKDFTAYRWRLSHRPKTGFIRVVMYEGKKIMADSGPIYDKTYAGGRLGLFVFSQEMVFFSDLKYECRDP

Tests used:
[1] = biological target: Thrombospondin from human platelets (thrombospondin-1) (human) (UniProt P07996); assay: SPR; data not shown; no details told; both purified
[2] = biological target: Thrombospondin from human platelets (thrombospondin-1) (human) (UniProt P07996); assay: MST; data not shown; no details told; both purified
[3] = biological target: Thrombospondin from human platelets (thrombospondin-1) (human) (UniProt P07996); assay: ELISA; TSP-1 (5 μg/mL; 0.5 μg) coated on microtiter plates overnight at 4°C, blocked with 1% BSA; biotinylated peptide 10 μg/mL in buffer with 0.5% BSA, 3 h, room temperature; non-labeled TAX2 competitor 0.001 to 5 mg/mL; detected with anti-biotin antibody; both purified

With CEVSQLLKGDAC (disulfide bridge between the two cysteines (cyclic)) [TAX2 peptide (cyclic disulfide analogue …), not labelled] the binding [1] was “binds”, the binding [2] was “binds” and the binding [3] was “binds”.

In the case of LSVDESKAQGIL (biotin (position not given)) [biotinylated scrambled dodecapeptide (…)], the binding [3] is reported as “no binding (tested: 10 μg/mL)”.
